In this experiment the target is FLAG-tagged m4EHP (human (cDNA from HeLa 11ht RNA)) (UniProt O60573). Kind of experiment: co-IP.

Protein sequences, listed by entry. Tags and fused reporters are not part of them. Lines headed by an entry give the natural chain unless they say otherwise; changes in a name come on top.
UniProt O60573: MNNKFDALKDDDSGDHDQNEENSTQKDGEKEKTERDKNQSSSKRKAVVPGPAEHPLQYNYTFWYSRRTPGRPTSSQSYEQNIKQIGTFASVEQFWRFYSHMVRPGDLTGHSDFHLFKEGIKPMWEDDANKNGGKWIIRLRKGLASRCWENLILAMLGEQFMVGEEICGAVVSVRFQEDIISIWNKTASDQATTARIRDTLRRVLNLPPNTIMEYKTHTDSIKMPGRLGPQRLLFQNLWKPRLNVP
UniProt Q6Y7W6: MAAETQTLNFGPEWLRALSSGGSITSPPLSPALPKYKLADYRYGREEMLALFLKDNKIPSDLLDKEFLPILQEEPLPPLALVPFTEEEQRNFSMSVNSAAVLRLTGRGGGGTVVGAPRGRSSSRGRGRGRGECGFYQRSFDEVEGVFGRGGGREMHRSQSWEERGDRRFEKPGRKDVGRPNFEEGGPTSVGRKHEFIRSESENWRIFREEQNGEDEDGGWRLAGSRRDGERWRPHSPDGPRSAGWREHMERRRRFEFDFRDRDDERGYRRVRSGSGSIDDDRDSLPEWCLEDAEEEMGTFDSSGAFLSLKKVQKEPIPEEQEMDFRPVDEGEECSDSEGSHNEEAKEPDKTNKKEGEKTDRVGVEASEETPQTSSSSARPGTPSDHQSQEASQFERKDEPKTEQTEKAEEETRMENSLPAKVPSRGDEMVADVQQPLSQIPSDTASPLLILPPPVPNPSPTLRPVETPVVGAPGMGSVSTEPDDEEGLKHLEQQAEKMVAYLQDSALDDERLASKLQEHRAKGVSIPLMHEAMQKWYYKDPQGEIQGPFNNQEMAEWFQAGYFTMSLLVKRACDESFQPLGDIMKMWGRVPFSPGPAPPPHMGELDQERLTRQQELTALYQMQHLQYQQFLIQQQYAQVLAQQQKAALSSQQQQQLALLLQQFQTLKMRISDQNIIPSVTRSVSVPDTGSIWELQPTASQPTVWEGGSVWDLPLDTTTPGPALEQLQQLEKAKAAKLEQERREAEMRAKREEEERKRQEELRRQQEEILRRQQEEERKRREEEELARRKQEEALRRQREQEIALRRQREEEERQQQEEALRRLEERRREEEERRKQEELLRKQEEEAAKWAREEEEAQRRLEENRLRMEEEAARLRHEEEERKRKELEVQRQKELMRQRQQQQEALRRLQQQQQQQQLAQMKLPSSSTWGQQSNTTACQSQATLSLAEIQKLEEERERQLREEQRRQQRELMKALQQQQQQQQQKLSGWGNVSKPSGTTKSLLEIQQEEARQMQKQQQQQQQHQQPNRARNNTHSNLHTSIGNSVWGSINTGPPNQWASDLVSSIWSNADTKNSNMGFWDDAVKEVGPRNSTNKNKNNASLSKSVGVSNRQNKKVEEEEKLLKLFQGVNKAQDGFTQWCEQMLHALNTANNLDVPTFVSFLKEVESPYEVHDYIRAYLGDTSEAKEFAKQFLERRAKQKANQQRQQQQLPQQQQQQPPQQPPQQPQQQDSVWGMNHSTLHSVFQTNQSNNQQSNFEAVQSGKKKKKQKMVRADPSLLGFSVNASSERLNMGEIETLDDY

No constants are given. Whether binding was seen depends on the method and setting. In cells and extracts the contact can be indirect.

For “HA-tagged mut GIGYF2 (full-length GIGYF2 variant with a disrupted m4EHP-binding site) (from UniProt Q6Y7W6)”, the binding result is reported as “no binding”.

The values above are taken from doi:10.1101/181776.
